Values of other authors in publication PMC5405622 (Drug Metabolism Letters, 2016).

Test system: cryo-preserved rat hepatocytes
Conditions: cited from earlier work

In the case of `CC(C)c1c(C(=O)Nc2ccccc2)c(-c2ccccc2)c(-c2ccc(F)cc2)n1CC[C@@H](O)C[C@@H](O)CC(=O)O` [atorvastatin, reference compound], the “Uptake rate (CLint, influx)” value is listed as 12.6 mL/min/g of liver.
